Record: PubChem BioAssay AID1259425 (University of Nebraska Medical Center, 2018)
This is a random part of about 14,000 deposited reagents. Not all columns of the deposit are shown. Not stated in the record: the time to read-out.

Purpose: 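Find knockdowns that reproduce the gene expression pattern seen when KSR1 is lost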 (primary screen)
Cells: HCT116 human colon cancer cells
Knock-down reagent: siRNA pool against human genes, 50 nM siRNA
Measured: 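After 50 nM siRNA pool, branched-DNA assay measures six marker transcripts per well, minus blank, normalised to the geometric mean of two housekeeping transcripts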
Direction: BNIP3L mRNA: higher = more BNIP3L transcript after knockdown; NDRG1 mRNA: higher = more NDRG1 transcript after knockdown; BNIP3 mRNA: higher = more BNIP3 transcript after knockdown

| gene symbol | PubChem SID | BNIP3L mRNA, set 1 | NDRG1 mRNA, set 1 | BNIP3 mRNA, set 1 |
| --- | --- | --- | --- | --- |
| MAP3K7CL (MAP3K7 C-terminal like) | SID364001511 | 0.0439 | 0.478 | 0.25 |
| UAP1 (UDP-N-acetylglucosamine pyrophosphorylase 1) | SID363994256 | 0.0843 | 0.112 | 0.258 |
| MRO (maestro) | SID364003711 | 0.144 | 0.509 | 0.182 |
| SGCG (sarcoglycan gamma) | SID363991565 | 0.0552 | 0.328 | 0.243 |
| GSS (glutathione synthetase) | SID363991514 | 0.118 | 0.376 | 0.328 |
| LMTK3 (lemur tail kinase 3) | SID364005244 | 0.279 | 0.179 | 0.427 |
| TCF19 (transcription factor 19) | SID363997825 | 0.133 | 0.0926 | 0.207 |
| ZBTB3 (zinc finger and BTB domain containing 3) | SID364003055 | 0.139 | 0.257 | 0.246 |
| CRYBG1 (crystallin beta-gamma domain containing 1) | SID364005303 | 0.0768 | 0.0585 | 0.236 |
| SENP2 (SUMO specific peptidase 2) | SID364002151 | 0.16 | 0.131 | 0.322 |
| DDIT3 (DNA damage inducible transcript 3) | SID363995093 | 0.0696 | 0.0637 | 0.204 |
| MED16 (mediator complex subunit 16) | SID363996383 | 0.0489 | 0.43 | 0.307 |
| RYR1 (ryanodine receptor 1) | SID363991863 | 0.178 | 0.192 | 0.422 |
| POLR1A (RNA polymerase I subunit A) | SID363999485 | 0.395 | 1.01 | 0.554 |
| CCR4 (C-C motif chemokine receptor 4) | SID363996409 | 0.146 | 0.197 | 0.252 |
| PRB1 (proline rich protein BstNI subfamily 1) | SID363995978 | 0.075 | 0.0935 | 0.232 |
| SPOP (speckle type BTB/POZ protein) | SID363994645 | 0.165 | 0.77 | 0.285 |
| ERLIN2 (ER lipid raft associated 2) | SID363997875 | 0.0663 | 0.0901 | 0.225 |
| FAM215A (family with sequence similarity 215 member A) | SID363998748 | 0.256 | 0.553 | 0.798 |
| HDAC5 (histone deacetylase 5) | SID363996376 | 0.0897 | 0.118 | 0.22 |
| CCN6 (cellular communication network factor 6) | SID363994939 | 0.0406 | 0.135 | 0.237 |
| DYNLT3 (dynein light chain Tctex-type 3) | SID363997316 | 0.149 | 0.522 | 0.408 |
| AFAP1L2 (actin filament associated protein 1 like 2) | SID364004045 | 0.153 | 0.104 | 0.326 |
| WIPI1 (WD repeat domain, phosphoinositide interacting 1) | SID364000685 | 0.0618 | 1.27 | 0.387 |
| UBL4A (ubiquitin like 4A) | SID363998674 | 0.0707 | 0.0693 | 0.14 |
| GTPBP6 (GTP binding protein 6) | SID363998154 | 0.112 | 0.245 | 0.245 |
| XPNPEP1 (X-prolyl aminopeptidase 1) | SID364001650 | 0.111 | 0.149 | 0.239 |
| PIK3C2B | SID363993814 | 0.169 | 0.117 | 0.316 |
| MYCL (MYCL proto-oncogene, bHLH transcription factor) | SID363996286 | 0.0955 | 0.401 | 0.349 |
| EFNA4 (ephrin A4) | SID363996149 | 0.132 | 0.164 | 0.42 |
| SUZ12 (SUZ12 polycomb repressive complex 2 subunit) | SID363999435 | 0.112 | 0.147 | 0.402 |
| SPAG16 (sperm associated antigen 16) | SID364002852 | 0.0948 | 0.168 | 0.335 |
| YIPF4 (Yip1 domain family member 4) | SID364003898 | 0.165 | 0.103 | 0.191 |
| PSKH2 (protein serine kinase H2) | SID364004331 | 0.111 | 0.151 | 0.334 |
| SLC9A5 | SID363995564 | 0.0673 | 0.277 | 0.437 |
| TRAPPC4 (trafficking protein particle complex subunit 4) | SID363999910 | 0.0987 | 0.256 | 0.343 |
| LGI2 (leucine rich repeat LGI family member 2) | SID364000847 | 0.397 | 0.33 | 0.468 |
| INPP5D (inositol polyphosphate-5-phosphatase D) | SID363996441 | 0.197 | 0.325 | 0.167 |
| MICB (MHC class I polypeptide-related sequence B) | SID363996799 | 0.072 | 0.0834 | 0.203 |
| NSMAF (neutral sphingomyelinase activation associated factor) | SID363994660 | 0.0733 | 0.091 | 0.285 |
| EYA3 (EYA transcriptional coactivator and phosphatase 3) | SID363993202 | 0.0706 | 0.153 | 0.21 |
| APOL5 (apolipoprotein L5) | SID364003389 | 0.0835 | 0.116 | 0.373 |
| RTN4R (reticulon 4 receptor) | SID364002611 | 0.033 | 0.329 | 0.246 |
| RAB7A (RAB7A, member RAS oncogene family) | SID363995605 | 0.125 | 0.204 | 0.261 |
| TUBB3 (tubulin beta 3 class III) | SID363996929 | 0.0765 | 0.214 | 0.245 |
| ITPRID2 (ITPR interacting domain containing 2) | SID363997522 | 0.14 | 2.6 | 0.726 |
| BIN2 (bridging integrator 2) | SID363999936 | 0.0579 | 0.11 | 0.244 |
| STK38 (serine/threonine kinase 38) | SID363997960 | 0.249 | 0.306 | 1.03 |
| RXFP2 (relaxin family peptide receptor 2) | SID364004524 | 0.106 | 0.166 | 0.44 |
| LGSN (lengsin, lens protein with glutamine synthetase domain) | SID364000203 | 0.06 | 0.195 | 0.24 |

8 entries from above, reduced to “BNIP3 mRNA, set 1”.
EFNA4 (ephrin A4) [SID363996149]: 0.42
SUZ12 (SUZ12 polycomb repressive complex 2 subunit) [SID363999435]: 0.402
SPAG16 (sperm associated antigen 16) [SID364002852]: 0.335
YIPF4 (Yip1 domain family member 4) [SID364003898]: 0.191
PSKH2 (protein serine kinase H2) [SID364004331]: 0.334
SLC9A5 [SID363995564]: 0.437
TRAPPC4 (trafficking protein particle complex subunit 4) [SID363999910]: 0.343
LGI2 (leucine rich repeat LGI family member 2) [SID364000847]: 0.468
